Test results: paper PMC6818788
Results are given in words; binding and its absence hold for the method and conditions named. For some assays here: Binding seen in cells or lysates may run through a third protein. Some binding calls cover weakened binding; strength is not graded here. For some assays here: Sequences can lack the tags named with a protein.

T1: GST-IFI204 (mouse) (UniProt P0DOV2)
T1 sequence: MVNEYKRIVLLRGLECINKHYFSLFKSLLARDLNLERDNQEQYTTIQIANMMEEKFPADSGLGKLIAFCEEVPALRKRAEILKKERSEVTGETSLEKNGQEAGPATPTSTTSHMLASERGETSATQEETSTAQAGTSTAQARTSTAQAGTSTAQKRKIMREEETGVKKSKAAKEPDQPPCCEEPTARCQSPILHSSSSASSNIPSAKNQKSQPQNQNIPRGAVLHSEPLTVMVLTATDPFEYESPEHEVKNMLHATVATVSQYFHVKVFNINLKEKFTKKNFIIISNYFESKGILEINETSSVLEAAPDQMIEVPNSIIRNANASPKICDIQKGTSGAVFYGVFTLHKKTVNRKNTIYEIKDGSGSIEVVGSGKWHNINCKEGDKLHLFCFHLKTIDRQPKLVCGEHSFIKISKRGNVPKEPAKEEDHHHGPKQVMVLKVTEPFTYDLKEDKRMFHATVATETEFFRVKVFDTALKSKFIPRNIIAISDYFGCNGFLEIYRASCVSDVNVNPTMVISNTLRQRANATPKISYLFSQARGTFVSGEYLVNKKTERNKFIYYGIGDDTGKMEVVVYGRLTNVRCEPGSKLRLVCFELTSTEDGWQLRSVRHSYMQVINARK

T2: Flag-IRF7 (mouse) (UniProt P70434)
T2 sequence: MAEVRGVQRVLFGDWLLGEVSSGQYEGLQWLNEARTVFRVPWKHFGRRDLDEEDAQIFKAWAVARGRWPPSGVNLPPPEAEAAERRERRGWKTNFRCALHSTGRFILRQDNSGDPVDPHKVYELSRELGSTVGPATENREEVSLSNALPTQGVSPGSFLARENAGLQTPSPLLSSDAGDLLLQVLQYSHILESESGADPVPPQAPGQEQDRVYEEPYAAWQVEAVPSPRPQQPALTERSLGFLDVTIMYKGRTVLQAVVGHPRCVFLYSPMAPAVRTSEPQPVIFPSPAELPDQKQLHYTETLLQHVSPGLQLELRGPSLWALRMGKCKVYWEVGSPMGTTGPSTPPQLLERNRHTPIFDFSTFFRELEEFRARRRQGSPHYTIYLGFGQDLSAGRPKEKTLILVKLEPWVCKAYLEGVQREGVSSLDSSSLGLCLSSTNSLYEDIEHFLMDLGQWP

T3: IRF7 (endogenous) (mouse (endogenous in NIH3T3)) (UniProt P70434)
T3 sequence: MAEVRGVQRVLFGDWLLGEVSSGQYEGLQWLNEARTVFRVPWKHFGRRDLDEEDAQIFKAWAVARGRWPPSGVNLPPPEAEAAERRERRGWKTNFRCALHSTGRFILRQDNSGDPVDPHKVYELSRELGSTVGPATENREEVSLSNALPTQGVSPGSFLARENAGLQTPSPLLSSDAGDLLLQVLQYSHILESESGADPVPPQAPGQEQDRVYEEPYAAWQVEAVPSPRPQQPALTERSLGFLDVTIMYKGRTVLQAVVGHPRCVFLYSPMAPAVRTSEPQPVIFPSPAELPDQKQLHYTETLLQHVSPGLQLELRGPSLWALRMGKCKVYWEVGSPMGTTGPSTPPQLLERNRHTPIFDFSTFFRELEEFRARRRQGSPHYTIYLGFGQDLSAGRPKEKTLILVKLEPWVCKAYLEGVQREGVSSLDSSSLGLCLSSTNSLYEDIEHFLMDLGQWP


Key:
GST-IFI204 (mouse) = target: T1, GST-IFI204 (mouse); test: pull-down; purified GST-IFI204 or GST incubated with MBP-IRF7 or MBP, pulled down with glutathione resin beads, Western blotting; both purified
Flag-IRF7 (mouse) = target: T2, Flag-IRF7 (mouse); test: co-IP; HEK293T cells co-transfected with Flag-IRF7 and HA-tagged p200 family protein or mutant; lysate immunoprecipitated with anti-Flag, immunoblot with anti-HA
[1] = target: T3, IRF7 (endogenous) (mouse (endogenous in NIH3T3)); test: co-IP; endogenous proteins; NIH3T3 cells infected with SeV for 8 hrs; lysate immunoprecipitated with anti-IRF7 antibody or control IgG, immunoblot with anti-IFI204

Row | binding (Flag-IRF7 (mouse)) | Binder | other results
1 |  | MBP-IRF7 (protein, UniProt P70434 1-457) MAEVRGVQRVLFGDWLLGEVSSGQYEGLQWLNEARTVFRVPWKHFGRRDLDEEDAQIFKAWAVARGRWPPSGVNLPPPEAEAAERRERRGWKTNFRCALHSTGRFILRQDNSGDPVDPHKVYELSRELGSTVGPATENREEVSLSNALPTQGVSPGSFLARENAGLQTPSPLLSSDAGDLLLQVLQYSHILESESGADPVPPQAPGQEQDRVYEEPYAAWQVEAVPSPRPQQPALTERSLGFLDVTIMYKGRTVLQAVVGHPRCVFLYSPMAPAVRTSEPQPVIFPSPAELPDQKQLHYTETLLQHVSPGLQLELRGPSLWALRMGKCKVYWEVGSPMGTTGPSTPPQLLERNRHTPIFDFSTFFRELEEFRARRRQGSPHYTIYLGFGQDLSAGRPKEKTLILVKLEPWVCKAYLEGVQREGVSSLDSSSLGLCLSSTNSLYEDIEHFLMDLGQWP | binding (GST-IFI204 (mouse)): binds
2 | binds | HA-IFI204 (protein, UniProt P0DOV2 1-619) MVNEYKRIVLLRGLECINKHYFSLFKSLLARDLNLERDNQEQYTTIQIANMMEEKFPADSGLGKLIAFCEEVPALRKRAEILKKERSEVTGETSLEKNGQEAGPATPTSTTSHMLASERGETSATQEETSTAQAGTSTAQARTSTAQAGTSTAQKRKIMREEETGVKKSKAAKEPDQPPCCEEPTARCQSPILHSSSSASSNIPSAKNQKSQPQNQNIPRGAVLHSEPLTVMVLTATDPFEYESPEHEVKNMLHATVATVSQYFHVKVFNINLKEKFTKKNFIIISNYFESKGILEINETSSVLEAAPDQMIEVPNSIIRNANASPKICDIQKGTSGAVFYGVFTLHKKTVNRKNTIYEIKDGSGSIEVVGSGKWHNINCKEGDKLHLFCFHLKTIDRQPKLVCGEHSFIKISKRGNVPKEPAKEEDHHHGPKQVMVLKVTEPFTYDLKEDKRMFHATVATETEFFRVKVFDTALKSKFIPRNIIAISDYFGCNGFLEIYRASCVSDVNVNPTMVISNTLRQRANATPKISYLFSQARGTFVSGEYLVNKKTERNKFIYYGIGDDTGKMEVVVYGRLTNVRCEPGSKLRLVCFELTSTEDGWQLRSVRHSYMQVINARK | 
3 |  | IFI204 (endogenous) (protein, UniProt P0DOV2 1-619) MVNEYKRIVLLRGLECINKHYFSLFKSLLARDLNLERDNQEQYTTIQIANMMEEKFPADSGLGKLIAFCEEVPALRKRAEILKKERSEVTGETSLEKNGQEAGPATPTSTTSHMLASERGETSATQEETSTAQAGTSTAQARTSTAQAGTSTAQKRKIMREEETGVKKSKAAKEPDQPPCCEEPTARCQSPILHSSSSASSNIPSAKNQKSQPQNQNIPRGAVLHSEPLTVMVLTATDPFEYESPEHEVKNMLHATVATVSQYFHVKVFNINLKEKFTKKNFIIISNYFESKGILEINETSSVLEAAPDQMIEVPNSIIRNANASPKICDIQKGTSGAVFYGVFTLHKKTVNRKNTIYEIKDGSGSIEVVGSGKWHNINCKEGDKLHLFCFHLKTIDRQPKLVCGEHSFIKISKRGNVPKEPAKEEDHHHGPKQVMVLKVTEPFTYDLKEDKRMFHATVATETEFFRVKVFDTALKSKFIPRNIIAISDYFGCNGFLEIYRASCVSDVNVNPTMVISNTLRQRANATPKISYLFSQARGTFVSGEYLVNKKTERNKFIYYGIGDDTGKMEVVVYGRLTNVRCEPGSKLRLVCFELTSTEDGWQLRSVRHSYMQVINARK | binding [1]: binds
4 | binds | HA-IFI202 (protein, UniProt Q9R002 1-445) MSNRNLRSSTNSEFSEGQHQTPSSDSSGHGEDQPQASPGPNKKSHTPKKNISKGAVLHEKPMTVMVLTATEPFNYKEGKENMFHATVATESQYYRVKVFNMDLKEKFTENKFITISKYFNSSGILEINETATVSEAAPNQIIEVPKNIIRSAKETLKISKIKELDSGTLIYGVFAVEKKKVNDKSITFKIKDNEDNIKVVWDKKQHNINYEKGDKLQLFSFHLRKGNGKPILHSGNHSFIKGEKLLKESFEGDGYHKGPKQVVALKATKLFTYDSIKSKKMFHATVATDTEFFRVMVFEENLEKKFIPGNTIALSDYFGMYGSLAIHEYSSVSEVKSQNKEDSSSSDERLIEHLKICDLHLQTKERLVDGEFKVYRKSTGNNCICYGIWDDTGAMKVVVSGQLTSVNCEIGNTIRLVCFELTSNADEWFLRSTRYSYMEVIMPEK | 
5 | binds | HA-MNDA (protein, UniProt P41218 1-407) MVNEYKKILLLKGFELMDDYHFTSIKSLLAYDLGLTTKMQEEYNRIKITDLMEKKFQGVACLDKLIELAKDMPSLKNLVNNLRKEKSKVAKKIKTQEKAPVKKINQEEVGLAAPAPTARNKLTSEARGRIPVAQKRKTPNKEKTEAKRNKVSQEQSKPPGPSGASTSAAVDHPPLPQTSSSTPSNTSFTPNQETQAQRQVDARRNVPQNDPVTVVVLKATAPFKYESPENGKSTMFHATVASKTQYFHVKVFDINLKEKFVRKKVITISDYSECKGVMEIKEASSVSDFNQNFEVPNRIIEIANKTPKISQLYKQASGTMVYGLFMLQKKSVHKKNTIYEIQDNTGSMDVVGSGKWHNIKCEKGDKLRLFCLQLRTVDRKLKLVCGSHSFIKVIKAKKNKEGPMNVN | 
6 | binds | HA-MNDAL (protein, UniProt D0QMC3 1-538) MAEYKKIVLLKGLESMEDYQFRTVKSLLRKELKLTKKLQEDYDRIQLADWMEDKFPKYAGLDKLIKVCEHIKDLKDLAKKLKTEKAKVQKKKQGKCKTAVKKKGQDELSSSESLFINKESYKSVPSSKKKGKAIAKTEGEKKNKLTQDQDHLPETSGTDIKTEEDCLQNSPKPPPTSPSSSSNKKKRKEITKTEGGKKKKLTQEQAQLPEPLGTDIKKDEDCLQTPPKPPPTPPSSSLNKKRKSRREEETGVKKSKAAKEPDQPPCCEEPTARCQSPILHSSSSASSNIPSATNQKPQPQNQNIPRGAVLHSEPLTVMVLTATDPFEYESPEHEVKNMFHATVATVSQYFHVKVFNINLKEKFTKKNFIIISNYFESKGILEINETSSVLKADPDQMIEVPNNIIRNANASPKICDIQKGTSGAVFYGVFTLHKKKVKTQNTSYEIKDGSGSIEVEGSGQWHNINCKEGDKLHLFCFHLKRERGQPKLVCGDHSFVKIKVTKAGKKKEASTVLSSTKNEEENNYPKDGIKVEMPDYHV | 
7 | binds | HA-IFI209 (protein, UniProt Q8BV49 1-420) MVNEYKRIVLLTGLMGINDHDFRMVKSLLSKELKLNRMQDQYDRVKIADLMEDKFPKDAGVDQLIKLYKQIPGLGDIANKLKNEKAKAKRTRTGKRKTAAKRQRQEEPSTSQPMSTTNEDAEPESGRSTPDTQVAQLSLPTASRRNQAIQISPTIASSSGQTSSRSSETLQSIIQSPKTPKRPSSSILDPPVSSGTASSSAQALGVPLATIAKRQRLKNVPKEPSEENGHQQGSKKVMVLKVTEPFSYDVTEEKMFHATVATETEFFRVKVFDIVLKEKFIPNKVLTISNYVGCNGFINIYSASSVSEVNDGEPMNIPLSLRKSANRTPKINYLCSKKRGIFVNGVFTVCKKEEKWNYICYEIGDDTGMMEVEVYGRLTNIACNPGDKLRLICFKLIPDEEKAQLRSTTHSNMQVIKAKN | 
8 | binds | HA-AIM2 (protein, UniProt O14862 1-343) MESKYKEILLLTGLDNITDEELDRFKFFLSDEFNIATGKLHTANRIQVATLMIQNAGAVSAVMKTIRIFQKLNYMLLAKRLQEEKEKVDKQYKSVTKPKPLSQAEMSPAASAAIRNDVAKQRAAPKVSPHVKPEQKQMVAQQESIREGFQKRCLPVMVLKAKKPFTFETQEGKQEMFHATVATEKEFFFVKVFNTLLKDKFIPKRIIIIARYYRHSGFLEVNSASRVLDAESDQKVNVPLNIIRKAGETPKINTLQTQPLGTIVNGLFVVQKVTEKKKNILFDLSDNTGKMEVLGVRNEDTMKCKEGDKVRLTFFTLSKNGEKLQLTSGVHSTIKVIKAKKKT | 
